No constants are given. Whether binding was seen depends on the method and setting. Some entries that bind do so weakly or less than the wild type. Where a sequence is shown, tags or fusion partners need not be part of it.
Assays:
Assay in all cases: two-hybrid; directed test in yeast strain Gold Y2H: pGBKT7 (BD) bait and pGADT7 (AD) prey; growth on SD/-Ade-His-Leu-Trp with X-alpha-gal, 30°C
[1] = target: BD-OCP-2 (OCP 111-348 aa, in pGBKT7) (rice (Oryza sativa)) (UniProt P25776)
[2] = target: BD-OCP (oryzain alpha chain precursor, full length, in pGBKT7) (rice (Oryza sativa)) (UniProt P25776)
[3] = target: BD-OCP-4 (OCP 1-348 aa, in pGBKT7) (rice (Oryza sativa)) (UniProt P25776)

Amino acid sequences for entries named in this document (tags omitted). A change or cut given only in a name is not applied to a line headed by its entry. Residues count along the entry.
UniProt P25776: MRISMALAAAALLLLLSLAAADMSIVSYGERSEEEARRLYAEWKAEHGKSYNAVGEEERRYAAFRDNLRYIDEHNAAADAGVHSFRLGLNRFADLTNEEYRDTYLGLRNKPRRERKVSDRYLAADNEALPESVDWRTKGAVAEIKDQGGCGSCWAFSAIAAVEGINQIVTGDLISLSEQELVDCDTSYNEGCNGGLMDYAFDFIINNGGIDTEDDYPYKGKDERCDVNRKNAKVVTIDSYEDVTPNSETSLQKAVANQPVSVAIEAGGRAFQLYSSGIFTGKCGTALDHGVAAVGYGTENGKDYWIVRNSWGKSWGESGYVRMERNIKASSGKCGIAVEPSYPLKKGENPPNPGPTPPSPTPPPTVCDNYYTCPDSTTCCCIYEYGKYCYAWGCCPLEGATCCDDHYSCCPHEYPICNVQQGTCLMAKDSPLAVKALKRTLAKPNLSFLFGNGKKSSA
BD-OCP-4 (OCP 1-348 aa, in pGBKT7) (rice (Oryza sativa)): residues 1-348 of P25776
BD-OCP-2 (OCP 111-348 aa, in pGBKT7) (rice (Oryza sativa)): residues 111-348 of P25776

binding [1]: binds | binding [2]: binds | binding [3]: binds
B1: AD-OsSNAP32 (synaptosome-associated protein of 32 kD, full-length coding region in pGADT7) (protein, UniProt Q0E1I7 1-283)
chain: MSGRRSFFASKKPSRSSNPFDSDSDDGGREQRPARASSVPPPADQRGSLFGGGDGFSASSAAARSRYRNDFRDTGGVEAQSVQELEGYAAYKAEETTQRVQGCVRIAEEMRDTASKSLVTIHQQGQQITRTHMMTLDIDQDLSRSEKLLGDLGGIFSKKWKPKKNGEIRGPMLTRDDSFIRKGSHLEQRHKLGLSDHPPQSNARQFHSEPTSALQKVEMEKAKQDDGLSDLSNILTELKGMAVDMGTEIDRQTKALGDSEKDYDELNFRIKGANTRARRLLGK

From article PMC9749133
